Laboratory results: PubChem BioAssay AID540256 (National Center for Advancing Translational Sciences (NCATS), 2011)
About 3,700 (1.2%) of roughly 300,000 compounds were called active. The inconclusive results got no clear call from the source; some entries with a clear call stand among them for comparison. Calls come from the whole dose curve; tested in HEK293 cells. Potencies of inconclusive entries are doubtful fits and often do not repeat.

experiment: qHTS for Inhibitors of binding or entry into cells for Lassa Virus; conditions: Lassa virus pseudotype entry inhibition, cell reporter; activity change, negative = inhibition: at 37.9 µM (top of the series) unless noted; note: nearly all actives have a fitted effect of over 50% in size
% is set by controls: 0 for no effect and ±100 for the full control effect; potency is the fitted concentration of half-maximal effect.

Question: Which Potency does the source give for `CCCC(c1nnnn1Cc1ccc(OC)cc1)N1CCN(c2ccccc2OC)CC1` (stereo not drawn) here?
Answer: The Potency was inconclusive: 35.5 µM [inhibitor, single point].

Question: For `Cn1c(=O)c(C(=O)COC(=O)c2cc(C(F)(F)F)nc3ccccc23)c(N)n(Cc2ccccc2)c1=O`, which “activity change, negative = inhibition” value is on record?
Answer: The value was inactive: 3.37%.

Question: Which Potency does the source give for `Cc1ccc(N(C(=O)Cn2nnc(-c3ccc(F)cc3)n2)C(C(=O)NC(C)(C)C)c2ccncc2)cc1` (stereo not drawn) here?
Answer: Its Potency is inconclusive: 1.41 µM [inhibitor, partial curve, poor fit].

Question: With `COc1cc(NC(=O)c2ccccc2[N+](=O)[O-])ccc1NC(=O)C(C)C` as the compound, how does the “activity change, negative = inhibition” value read?
Answer: The value was inactive: 10.7%.

Question: For `CCOc1ccccc1NC(=O)CN(c1ccc(OC)cc1)S(=O)(=O)c1c(C)noc1C`, which Potency is on record?
Answer: The Potency was inconclusive: 29.1 µM [inhibitor, partial curve, poor fit].

Question: With `Cc1cc(C)n(-c2nc3cc(Cl)c(Cl)cc3nc2Nc2ccc(F)cc2C)n1` as the compound, how does the “activity change, negative = inhibition” value read?
Answer: The value was inactive: 5.87% [at 46.1 µM].

Question: With `O=C(Nc1ccccn1)c1cc2ccccc2o1` as the compound, how does the Potency read?
Answer: Its Potency is active: 4.61 µM.

Question: Which “activity change, negative = inhibition” value does the source give for `Cc1ccc2nc(SC(C)C(=O)N3CCCC3)[nH]c2c1` (stereo not drawn) here?
Answer: Its value is inactive: 0.856%.

Question: For `O=C(CCN1CCc2ccccc2C1)Nc1cccc(F)c1`, which Potency is on record?
Answer: The Potency was inconclusive: 29.1 µM [inhibitor, single point].

Question: Which Potency does the source give for `COc1cc(-c2cc(C(=O)Nc3c(Cl)cc(Cl)cc3Cl)c3ccccc3n2)cc(OC)c1OC` here?
Answer: The Potency was inconclusive: 15.8 µM [inhibitor, partial curve, poor fit].

Question: With `Cc1cccc(NC(=O)CSCC(=O)Nc2cc(Cl)ccc2N2CCOCC2)c1` as the compound, how does the Potency read?
Answer: Its Potency is inconclusive: 3.55 µM [inhibitor, single point].

Question: With `Cc1ccc(CN2CCN(/N=C/c3ccccc3)CC2)cc1` as the compound, how does the Potency read?
Answer: Its Potency is inconclusive: 0.562 µM [activator, full curve, poor fit].

Question: For `CN1C/C(=C\c2ccc(N3CCOCC3)cc2)C(=O)/C(=C/c2ccc(N3CCOCC3)cc2)C1`, which “activity change, negative = inhibition” value is on record?
Answer: Its value is inactive: 1.63%.

Question: Which Potency does the source give for `Cc1ccnc(NC(=O)c2ccc(S(=O)(=O)NCc3ccco3)cc2)c1` here?
Answer: Its Potency is inconclusive: 8.91 µM [inhibitor, partial curve].

Question: For `O=C(C1CCN(S(=O)(=O)c2ccccc2)CC1)N1CCOCC1`, which “activity change, negative = inhibition” value is on record?
Answer: The value was inactive: 2.6%.

Question: Which Potency does the source give for `O=C(c1ccc(Cl)cc1)N1CCCCC1CCN1CCOCC1` (stereo not drawn) here?
Answer: The Potency was inconclusive: 35.5 µM [activator, single point].

Question: For `COc1ccc(CNC(=O)c2ccc3c(c2)N(Cc2ccccc2F)C(=O)c2ccccc2S3=O)cc1` (stereo not drawn), which “activity change, negative = inhibition” value is on record?
Answer: The value was inactive: -9.12% [at 46.1 µM].

Question: For `CC1=CC(=O)C=C(C)C1=NOS(=O)(=O)c1ccccc1`, which Potency is on record?
Answer: The Potency was active: 10 µM.

Question: Which Potency does the source give for `COc1cccc(-c2ccc3c(N)c(C(=O)Nc4ccc(Cl)cc4F)sc3n2)c1` here?
Answer: The Potency was inconclusive: 17.8 µM [inhibitor, single point].

Question: Which “activity change, negative = inhibition” value does the source give for `Cc1nc(SC(C(N)=O)c2ccccc2)c(C#N)c(C)c1C` (stereo not drawn) here?
Answer: Its value is inactive: 13.5%.

Question: With `CCCCCCCCCCn1c2c(c(=N)c3c1CCC3)CCC2` as the compound, how does the Potency read?
Answer: Its Potency is inconclusive: 2.51 µM [inhibitor, full curve, poor fit].

Question: For `CC(C)c1nnc(NC(=O)c2nc(S(=O)(=O)Cc3ccc(F)cc3)ncc2Cl)s1`, which Potency is on record?
Answer: Its Potency is inconclusive: 17.8 µM [inhibitor, partial curve, poor fit].

Question: Which Potency does the source give for `Cc1nn(CC(=O)NCCCN2C(C)CCCC2C)c(=O)c2cc3occc3n12` (stereo not drawn) here?
Answer: Its Potency is inconclusive: 6.31 µM [activator, partial curve, poor fit].

Question: With `COc1ccc(-c2cccc(NS(=O)(=O)c3cc([N+](=O)[O-])ccc3C)c2)nn1` as the compound, how does the Potency read?
Answer: Its Potency is inconclusive: 2.51 µM [inhibitor, partial curve].

Question: Which Potency does the source give for `CC(C)Cn1c(=O)c2sccc2n2c(CCCC(=O)NCC(C)c3ccccc3)nnc12` (stereo not drawn) here?
Answer: The Potency was inconclusive: 5.62 µM [inhibitor, partial curve, poor fit].

Question: Which Potency does the source give for `Cc1ccc(NC(=O)c2ccccc2F)c(NC(=O)c2ccccc2F)c1` here?
Answer: Its Potency is inconclusive: 10 µM [activator, partial curve, poor fit].

Question: With `CN(/N=C/c1ccc2c(c1)OCO2)c1ccccc1` as the compound, how does the Potency read?
Answer: The Potency was inconclusive: 6.31 µM [activator, single point].

Question: With `BrC(=C\c1ccccc1)/C=N/N1CCN(Cc2ccccc2)CC1` as the compound, how does the “activity change, negative = inhibition” value read?
Answer: Its value is inactive: -12.7%.

Question: With `CN(C)Cc1ccccc1Sc1cccc2ccccc12` as the compound, how does the Potency read?
Answer: Its Potency is active: 14.6 µM.

Question: Which Potency does the source give for `CC(=O)c1c(C)[nH]c(C(=O)Nc2ccc(Cl)c(S(=O)(=O)N3CCOCC3)c2)c1C` here?
Answer: The Potency was inconclusive: 14.1 µM [inhibitor, single point].

Question: For `FC(F)(F)c1ccc(C2NCCc3sccc32)cc1` (stereo not drawn), which “activity change, negative = inhibition” value is on record?
Answer: Its value is inactive: 4.24% [at 46.1 µM].

Question: With `Cc1ccc(NC(=S)NCCN(C2CCCCC2)C2CCCC2)cc1C` as the compound, how does the Potency read?
Answer: The Potency was inconclusive: 15.8 µM [inhibitor, partial curve, poor fit].

Question: For `CCOC(=O)c1sc(NC(=O)c2nc3ncccn3n2)c(C(=O)OC(C)C)c1C`, which “activity change, negative = inhibition” value is on record?
Answer: Its value is inactive: 2.33% [at 46.1 µM].

Question: With `CCN(CC)S(=O)(=O)c1cc(NC(=O)C(C)Nc2ccccc2N2CCOCC2)ccc1C` (stereo not drawn) as the compound, how does the Potency read?
Answer: Its Potency is inconclusive: 11.2 µM [inhibitor, partial curve, poor fit].

Question: For `COc1ccc(-c2cc(C(=O)Nc3ccccc3O)c3ccccc3n2)cc1OC`, which “activity change, negative = inhibition” value is on record?
Answer: Its value is inactive: 0.0452% [at 46.1 µM].

Question: For `COc1ccc(C(=O)COC(=O)C(CCSC)NS(=O)(=O)c2ccc(Cl)cc2)cc1` (stereo not drawn), which Potency is on record?
Answer: Its Potency is inconclusive: 35.5 µM [inhibitor, single point].

Question: With `COc1ccc(-c2noc(CN3CCC(Cc4ccccc4)CC3)n2)cc1` as the compound, how does the “activity change, negative = inhibition” value read?
Answer: Its value is inactive: 6.98%.

Question: With `Cc1cc(C(=O)Cn2ncc(Cl)c(Cl)c2=O)c(C)n1CC(F)(F)F` as the compound, how does the Potency read?
Answer: Its Potency is inconclusive: 35.5 µM [inhibitor, single point].

Question: With `CCOC(=O)c1c(Nc2cccc(O)c2)nnc(-c2ccccc2)c1-c1ccccc1` as the compound, how does the Potency read?
Answer: Its Potency is inconclusive: 7.08 µM [inhibitor, partial curve, poor fit].

Question: For `O=C(COC(=O)Cn1ccc(=O)[nH]c1=O)Nc1ccc(F)cc1`, which Potency is on record?
Answer: Its Potency is inconclusive: 1.26 µM [inhibitor, single point].

Question: With `CC(=O)Nc1c(O)nc(SCC(=O)N2CCCCC2)[nH]c1=O` as the compound, how does the Potency read?
Answer: The Potency was inconclusive: 17.8 µM [activator, partial curve, poor fit].

Question: For `Cc1cc(C)c(Cn2c3ccccc3c3cnn(CC(=O)NCCc4ccccc4)c(=O)c32)c(C)c1`, which “activity change, negative = inhibition” value is on record?
Answer: The value was inactive: 2.12% [at 46.1 µM].

Question: Which Potency does the source give for `C=C(C(=O)c1ccccc1)C(CC(=O)c1ccccc1)c1ccccc1` (stereo not drawn) here?
Answer: Its Potency is active: 10 µM.

Question: Which Potency does the source give for `CC(=O)c1ccc(NC2=NS(=O)(=O)c3ccccc32)cc1` here?
Answer: The Potency was inconclusive: 5.62 µM [activator, single point].

Question: For `O=C(CSc1nnc(Cc2cccs2)n1-c1ccccc1)NC1CCCCC1`, which Potency is on record?
Answer: The Potency was active: 14.1 µM.

Question: With `S=C(NCCc1ccccc1)Nc1c(Cl)cccc1Cl` as the compound, how does the Potency read?
Answer: Its Potency is inconclusive: 35.5 µM [inhibitor, single point].

Question: Which Potency does the source give for `Cc1ccc(NC2(c3nnnn3-c3c(C)cccc3C)CCCCC2)cc1` here?
Answer: The Potency was inconclusive: 29.1 µM [inhibitor, single point].

Question: Which Potency does the source give for `C=CCN1C(=O)C2(C(C#N)=C(N)Oc3n[nH]c(CCC)c32)c2ccccc21` (stereo not drawn) here?
Answer: Its Potency is inconclusive: 31.6 µM [activator, partial curve, poor fit].

Question: Which “activity change, negative = inhibition” value does the source give for `COc1ccc2c(C)cc(SCc3c(C)noc3C)nc2c1` here?
Answer: The value was inactive: -13.5%.

Question: Which Potency does the source give for `COc1c(Cl)cc(C(=O)Nc2cccc(-c3nc4ccccc4[nH]3)c2)cc1Cl` here?
Answer: The Potency was inconclusive: 11.2 µM [inhibitor, single point].

Question: With `CCN1CCN(C(=O)c2ccc3c(=O)n(CCC4=CCCCC4)c(=O)[nH]c3c2)CC1` as the compound, how does the “activity change, negative = inhibition” value read?
Answer: Its value is inactive: -9.63%.

Question: For `Cc1cc(=S)n(-c2ccccc2)n1C`, which “activity change, negative = inhibition” value is on record?
Answer: The value was inactive: -2.48%.

Question: For `Cc1ccc(NC(=O)CN(C)C(=O)Nc2ccc(C)cc2)cc1`, which “activity change, negative = inhibition” value is on record?
Answer: Its value is inactive: -9.93%.

Question: Which “activity change, negative = inhibition” value does the source give for `O=C(O)CCC(=O)N1CCCC1C(=O)O` (stereo not drawn) here?
Answer: Its value is inactive: -1.45%.

Question: With `Nc1nc(=S)c2ncn(C3OC(CO)CC3O)c2[nH]1` (stereo not drawn) as the compound, how does the “activity change, negative = inhibition” value read?
Answer: The value was inactive: -5.43%.

Question: For `Cc1ccc(C(=O)c2sc(Nc3ccccc3F)c(S(=O)(=O)c3ccccc3)c2N)c(C)c1`, which Potency is on record?
Answer: Its Potency is inconclusive: 5.62 µM [inhibitor, full curve, poor fit].

Question: For `O=C(N/N=C1\CC2CC=CC12)c1ccc(O)cc1` (stereo not drawn), which Potency is on record?
Answer: Its Potency is inconclusive: 35.5 µM [inhibitor, single point].

Question: Which Potency does the source give for `CC(=NCCc1c(C)[nH]c2ccc(C)cc12)C1=C(O)CC(c2ccccc2)CC1=O` (stereo not drawn) here?
Answer: Its Potency is inconclusive: 3.66 µM [inhibitor, full curve].

Question: Which Potency does the source give for `CCN(C(=O)COC(=O)c1ccccc1NCCO)c1cccc2ccccc12` here?
Answer: Its Potency is inconclusive: 20 µM [inhibitor, partial curve, poor fit].

Question: Which Potency does the source give for `Cc1cc(=O)n2c(C(=O)Nc3ccc(C)c(Cl)c3)c(C(=O)Nc3ccccc3)sc2n1` here?
Answer: The Potency was inconclusive: 5.01 µM [activator, full curve, poor fit].

Question: For `CCC(=O)Nc1c(C#N)c2nc3ccccc3nc2n1C1CCCCC1`, which “activity change, negative = inhibition” value is on record?
Answer: Its value is inactive: 1.99%.

Question: With `CC(C)C1C(=O)N(Cc2cn(CC3CCCCC3)nn2)CCS(=O)(=O)N1Cc1ccc(-c2ccccc2)cc1` (stereo not drawn) as the compound, how does the Potency read?
Answer: Its Potency is inconclusive: 12.5 µM [inhibitor, partial curve, poor fit].

Question: With `Cc1cc(C)c(S(=O)(=O)Nc2cc(-c3cn4ccccc4n3)ccc2C)cc1C` as the compound, how does the Potency read?
Answer: Its Potency is inconclusive: 20 µM [inhibitor, single point].

Question: For `Cc1ccc(CNC(=O)C2CCCN(S(=O)(=O)c3c(C)noc3C)C2)cc1` (stereo not drawn), which Potency is on record?
Answer: The Potency was inconclusive: 32.6 µM [inhibitor, single point].

Question: With `COc1cc(CN2CCC(N3CCC(C(=O)N4CCCC4)CC3)CC2)cc2c1OCO2` as the compound, how does the “activity change, negative = inhibition” value read?
Answer: Its value is inactive: -14% [at 46.1 µM].

Question: Which Potency does the source give for `CCC1=Nc2cc(C(=O)NCCCOC)ccc2Sc2ccccc21` here?
Answer: Its Potency is inconclusive: 5.62 µM [inhibitor, single point].

Question: With `COc1ccc(CCNC(=O)c2ccc3c(c2)CCN3S(=O)(=O)c2ccc(Cl)cc2)cc1` as the compound, how does the Potency read?
Answer: Its Potency is inconclusive: 22.4 µM [inhibitor, single point].

Question: For `C=CCN1C(=O)c2ccc(C(=O)OCC(=O)Nc3ccc(S(N)(=O)=O)cc3)cc2C1=O`, which Potency is on record?
Answer: Its Potency is inconclusive: 20 µM [activator, partial curve, poor fit].
